PubChem BioAssay AID1053208 | Peter MacCallum Cancer Centre | 2014
In all, the deposit lists about 17,000 reagents; this is an unselected part. 788 of all reagents (4.7%) were called active. 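Calls rest on z-score classes alone; an extra cut-off of viability at most 70% of control was not applied to them.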 Not all columns of the deposit are shown. Reagent sequences are not shown.

Test: 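Find knock-downs that sensitise mouse osteosarcoma cells to doxorubicin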 (primary screen)
Cells: mouse osteosarcoma cells, early-passage culture from an engineered mouse model of fibroblastic bone tumour
Reagents: siRNA pool against mouse genes, 40 nM
Time to read-out: about 120 h (48 h before drug, then 72 h with drug)
Conditions: doxorubicin 100 nM for 72 h, roughly 30-40% inhibitory dose
Measurement: 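Viability read as ATP luminescence after 72 h of 100 nM doxorubicin or none, duplicate wells averaged, scaled to non-targeting siRNA, then expressed as robust z-scores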
Direction: viability z-score with doxorubicin: higher = more viable cells under doxorubicin; viability z-score without drug: higher = more viable cells with knock-down alone
Active means: 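a pool counts as active when its viability z-score with doxorubicin is -2 or below and its z-score without drug lies between -2 and 2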

{"target":"Or12k8 (olfactory receptor family 12 subfamily K member 8)","combined z-score class":"no change with or without drug","viability z-score with doxorubicin":-1.91,"viability z-score without drug":0.84,"outcome":"inactive"}
{"target":"Prf1 (perforin 1 (pore forming protein))","combined z-score class":"no change with or without drug","viability z-score with doxorubicin":1.35,"viability z-score without drug":0.17,"outcome":"inactive"}
{"target":"Gpd1 (glycerol-3-phosphate dehydrogenase 1 (soluble))","combined z-score class":"no change with or without drug","viability z-score with doxorubicin":1.57,"viability z-score without drug":-0.17,"outcome":"inactive"}
{"target":"Taf1a","combined z-score class":"no change with or without drug","viability z-score with doxorubicin":-0.22,"viability z-score without drug":-1.52,"outcome":"inactive"}
{"target":"Chst5 (carbohydrate sulfotransferase 5)","combined z-score class":"no change with or without drug","viability z-score with doxorubicin":0.45,"viability z-score without drug":-0.17,"outcome":"inactive"}
{"target":"Mrps26 (mitochondrial ribosomal protein S26)","combined z-score class":"no change with or without drug","viability z-score with doxorubicin":-0.45,"viability z-score without drug":0.51,"outcome":"inactive"}
{"target":"Tnfaip2 (tumor necrosis factor, alpha-induced protein 2)","combined z-score class":"no change with or without drug","viability z-score with doxorubicin":-0.22,"viability z-score without drug":-0.51,"outcome":"inactive"}
{"target":"Epcip (exosomal polycystin 1 interacting protein)","combined z-score class":"low cell count without drug only","viability z-score with doxorubicin":0,"viability z-score without drug":-2.19,"outcome":"inactive"}
{"target":"Lilrb4a","combined z-score class":"no change with or without drug","viability z-score with doxorubicin":-0.67,"viability z-score without drug":0.17,"outcome":"inactive"}
{"target":"Scgn (secretagogin, EF-hand calcium binding protein)","combined z-score class":"no change with or without drug","viability z-score with doxorubicin":-1.8,"viability z-score without drug":-0.51,"outcome":"inactive"}
{"target":"Tfpi (tissue factor pathway inhibitor)","combined z-score class":"no change with or without drug","viability z-score with doxorubicin":-0.45,"viability z-score without drug":-0.51,"outcome":"inactive"}
{"target":"Slc5a8","combined z-score class":"no change with or without drug","viability z-score with doxorubicin":0.22,"viability z-score without drug":1.18,"outcome":"inactive"}
{"target":"Rtcb (RNA 2',3'-cyclic phosphate and 5'-OH ligase)","combined z-score class":"no change with or without drug","viability z-score with doxorubicin":-0.22,"viability z-score without drug":0.34,"outcome":"inactive"}
{"target":"Ecsit (ECSIT signalling integrator)","combined z-score class":"no change with or without drug","viability z-score with doxorubicin":-1.46,"viability z-score without drug":1.85,"outcome":"inactive"}
{"target":"Tubb6 (tubulin, beta 6 class V)","combined z-score class":"high cell count without drug only","viability z-score with doxorubicin":1.69,"viability z-score without drug":2.02,"outcome":"inactive"}
{"target":"Srsf6 (serine and arginine-rich splicing factor 6)","combined z-score class":"no change with or without drug","viability z-score with doxorubicin":-0.56,"viability z-score without drug":-0.51,"outcome":"inactive"}
{"target":"Zfp87 (zinc finger protein 87)","combined z-score class":"no change with or without drug","viability z-score with doxorubicin":1.24,"viability z-score without drug":0.17,"outcome":"inactive"}
{"target":"Dsn1 (DSN1 homolog, MIS12 kinetochore complex component)","combined z-score class":"no change with or without drug","viability z-score with doxorubicin":0.9,"viability z-score without drug":0.84,"outcome":"inactive"}
{"target":"Krtcap2 (keratinocyte associated protein 2)","combined z-score class":"no change with or without drug","viability z-score with doxorubicin":-1.24,"viability z-score without drug":-1.18,"outcome":"inactive"}
{"target":"Npy5r (neuropeptide Y receptor Y5)","combined z-score class":"no change with or without drug","viability z-score with doxorubicin":0.34,"viability z-score without drug":-0.34,"outcome":"inactive"}
{"target":"Rubcnl","combined z-score class":"no change with or without drug","viability z-score with doxorubicin":0.22,"viability z-score without drug":1.69,"outcome":"inactive"}
{"target":"Arhgap23 (Rho GTPase activating protein 23)","combined z-score class":"no change with or without drug","viability z-score with doxorubicin":-1.46,"viability z-score without drug":-0.51,"outcome":"inactive"}
{"target":"Sar1b (secretion associated Ras related GTPase 1B)","combined z-score class":"no change with or without drug","viability z-score with doxorubicin":-1.35,"viability z-score without drug":-0.51,"outcome":"inactive"}
{"target":"Hes5 (hes family bHLH transcription factor 5)","combined z-score class":"no change with or without drug","viability z-score with doxorubicin":0.67,"viability z-score without drug":1.85,"outcome":"inactive"}
{"target":"Aplf (aprataxin and PNKP like factor)","combined z-score class":"no change with or without drug","viability z-score with doxorubicin":-0.34,"viability z-score without drug":0.17,"outcome":"inactive"}
{"target":"Agl (amylo-1,6-glucosidase, 4-alpha-glucanotransferase)","combined z-score class":"no change with or without drug","viability z-score with doxorubicin":0.45,"viability z-score without drug":0.17,"outcome":"inactive"}
{"target":"Krtap19-9b (keratin associated protein 19-9B)","combined z-score class":"no change with or without drug","viability z-score with doxorubicin":0.34,"viability z-score without drug":-1.52,"outcome":"inactive"}
{"target":"Rgs6 (regulator of G-protein signaling 6)","combined z-score class":"low cell count without drug only","viability z-score with doxorubicin":-0.67,"viability z-score without drug":-2.7,"outcome":"inactive"}

Targets listed so far whose gene name begins with E or e (2):
{"target":"Epcip (exosomal polycystin 1 interacting protein)","combined z-score class":"low cell count without drug only","viability z-score with doxorubicin":0,"viability z-score without drug":-2.19,"outcome":"inactive"}
{"target":"Ecsit (ECSIT signalling integrator)","combined z-score class":"no change with or without drug","viability z-score with doxorubicin":-1.46,"viability z-score without drug":1.85,"outcome":"inactive"}
